This note sets out measurements from the supplement of paper PMC8256030.

“And” between values parts separate entries of the source, which are not always exact repeats. Equal entries are not always repeated. This is one part of the list. This data set is noisy: repeats of one test often differ as much as different tests do.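 HEK293T cells were given each compound shortly before transfection with a reporter in which red mCherry is followed by the SARS-CoV-2 frameshift element and then GFP in the −1 frame, so GFP appears only after frameshifting.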

For assay [1], the system named is SARS-CoV-2 -1 PRF reporter mCherry-FSE-GFP(-1). In words: mCherry (red) intensity as percent of control; higher = higher upstream reporter expression. To be noted: 10 µM; 24 h; HEK293T.
Assay [2] shares this test system. In words: percent effect, decrease of GFP/mCherry ratio (-1 PRF reporter) relative to controls; higher = stronger frameshift inhibition. The settings on record: 10 µM; 24 h; HEK293T.

As to `Cc1c2oc3c(C)ccc(C(=O)N[C@@H]4C(=O)N[C@H](C(C)C)C(=O)N5CCC[C@H]5C(=O)N(C)CC(=O)N(C)[C@@H](C(C)C)C(=O)O[C@@H]4C)c3nc-2c(C(=O)N[C@@H]2C(=O)N[C@H](C(C)C)C(=O)N3CCC[C@H]3C(=O)N(C)CC(=O)N(C)[C@@H](C(C)C)C(=O)O[C@@H]2C)c(N)c1=O` [dactinomycin], the mCherry in assay [1] was determined as 941%. Also, the percent effect in assay [2] is -24.6%.
For `O=C([O-])CN1CCN(CC(=O)[O-])CCN([C@H](CO)[C@H](O)CO)CCN(CC(=O)[O-])CC1.[Gd+3]` (racemic) [gadobutrol], in that order: 69.8% and -1.96%.
For `COC(=O)C[C@](O)(CCCC(C)(C)O)C(=O)O[C@@H]1C(OC)=C[C@]23CCCN2CCc2cc4c(cc2[C@H]13)OCO4` [omacetaxine mepesuccinate], in that order: 13% and -4.23%.
The like results for `Cc1cc(NC(=O)C2=C(O)c3ccccc3S(=O)(=O)N2C)no1` were, in that order, 108% and 2.37%.
Turning to `CC(C)(C#N)c1cc(Cn2cncn2)cc(C(C)(C)C#N)c1` [anastrozole], the mCherry in assay [1] is 111% and 97.5%. In addition, the percent effect in assay [2] was -2.36% and 0.871%.
As for `Cc1ccc(S(=O)(=O)NC(=O)NC2CCCCC2)cc1N` [metahexamide], in assay [1], the mCherry stood at 103%. Besides, the percent effect in assay [2] was -3.64%.
For `NC(=O)CC[C@H](N)C(=O)O` [glutamine], in that order: 106% and -4.51%.
The like results for `Cc1cc2c(s1)Nc1ccccc1N=C2N1CCN(C)CC1` [Olanzapine] were, in that order, 110% and 1.15%.
For `Cc1cc2cc3c(C)cc(=O)oc3c(C)c2o1` [trioxysalen], in that order: 130% and -8.4%.
Take `O=C1c2ccccc2C(=O)C1c1ccccc1` [phenindione]: the mCherry in assay [1] turned out to be 89.2%. The percent effect in assay [2] was -2.61%.
As to `C[C@H]1[C@H](NC(=O)/C(=N\OC(C)(C)C(=O)O)c2csc(N)n2)C(=O)N1S(=O)(=O)O` [Aztreonam], the mCherry in assay [1] stood at 67.8%. Also, the percent effect in assay [2] was -4.57%.
For `CCC(=O)NS(=O)(=O)c1ccc(-c2c(-c3ccccc3)noc2C)cc1` [parecoxib], in that order: 79.6% and -15.2%.
For `CC(NNC(=O)c1ccccc1)c1ccccc1` (stereo not given) [benmoxin], in that order: 71.5% and -14.2%.
For `CNCC(=O)N[C@@H](CCCNC(=N)N)C(=O)N[C@H](C(=O)N[C@@H](Cc1ccc(O)cc1)C(=O)N[C@H](C(=O)N[C@@H](Cc1cnc[nH]1)C(=O)N1CCC[C@H]1C(=O)N[C@@H](C)C(=O)O)C(C)C)C(C)C` [saralasin], in that order: 75.8% and -9.94%.
In assay [1], `Clc1ccc2nsnc2c1NC1=NCCN1` [tizanidine] displayed a mCherry of 20.6%. Moreover, the percent effect in assay [2] was -8.65%.
For `Clc1ccc(Nc2nnc(Cc3ccncc3)c3ccccc23)cc1` [vatalanib], in that order: 78.9% and -0.54%.
The like results for `CCCCCC(=O)O[C@]1(C(C)=O)CC[C@H]2[C@@H]3CCC4=CC(=O)CC[C@@H]4[C@H]3CC[C@@]21C` [gestonorone caproate] were, in that order, 82.1% and -3.23%.
Turning to `O=C1CCc2ccc(OCCCCN3CCN(c4cccc(Cl)c4Cl)CC3)cc2N1` [aripiprazole], in assay [1], the mCherry was 107% and 115%. For the same molecule, the percent effect in assay [2] is -2.32% and -6.57%.
As to `COC(=O)[C@@H]1[C@H]2C[C@H]3c4[nH]c5ccccc5c4CCN3C[C@@H]2CC[C@@H]1O`, the mCherry in assay [1] is 114%. Also, the percent effect in assay [2] was determined as 17.9%.
The like results for `CC(=O)OCC1=C(C(=O)O)N2C(=O)[C@@H](NC(=O)CC#N)[C@H]2SC1` [Celospor] were, in that order, 98.6% and -1.45%.
For `CC(C)[N+]1(C)[C@@H]2CC[C@H]1CC(OC(=O)C(CO)c1ccccc1)C2` (stereo not given in full), in that order: 72.8% and -3.1%.
The like results for `Cc1cncc(CN2CCC(=C3c4ccc(Cl)cc4CCc4cccnc43)CC2)c1` [rupatadine] were, in that order, 54.6% and -6.86%.
Take `CC[C@@H]1C(=O)N(C)c2cnc(Nc3ccc(C(=O)NC4CCN(C)CC4)cc3OC)nc2N1C1CCCC1`: the mCherry in assay [1] stood at 674%. In assay [2], the percent effect is -6.47%.
For `CN(C)c1cc(NC(=O)CNC(C)(C)C)c(O)c2c1C[C@H]1C[C@H]3[C@H](N(C)C)C(=O)C(C(N)=O)=C(O)[C@@]3(O)C(=O)C1=C2O`, in that order: 102% and -1.49%.
`CO[C@H](C(=O)[C@@H](O)[C@@H](C)O)[C@@H]1Cc2cc3cc(O[C@H]4C[C@@H](O[C@H]5C[C@@H](O)[C@H](O)[C@@H](C)O5)[C@H](O)[C@@H](C)O4)c(C)c(O)c3c(O)c2C(=O)[C@H]1O[C@H]1C[C@@H](O[C@H]2C[C@@H](O[C@H]3C[C@](C)(O)[C@H](O)[C@@H](C)O3)[C@@H](O)[C@@H](C)O2)[C@H](O)[C@@H](C)O1` [Mithracin]: the mCherry in assay [1] was found to be 17.1%. For the same molecule, the percent effect in assay [2] was -14.7%.
Turning to `CCCNCC(O)COc1ccccc1C(=O)CCc1ccccc1` (stereo not given) [propafenone], the mCherry in assay [1] was 96% and 87.7%. In assay [2], the percent effect was -2.65% and 0.589%.
On to `CCOc1cc(-c2nccc3cc(OC)c(OC)cc23)cc(OCC)c1OCC` [octaverine], for which, in assay [1], the mCherry came out at 80%. In addition, the percent effect in assay [2] was -6.89%.
The like results for `NC(=O)Oc1ccc(Cc2ccccc2)cc1` [diphenan] were, in that order, 95.3% and -7.81%.
The like results for `N=C(N=C(N)N)N1CCOCC1` were, in that order, 96.1% and 0.193%.
`Nc1c2c(nc3ccccc13)CCCC2` [tacrine] had a mCherry in assay [1] of 92.8%. Also, in assay [2], the percent effect is -1.66%.
